# The other results are listed elsewhere or left out.
# Experiments:
# Test in all cases: glycan array binding signal (z-score within array); higher = stronger binding
# Conditions in all cases: glycan notation: IUPAC condensed, linker removed
# [1] = target: Fuc(a1-2)Gal6S(b1-4)Glc
# Method in brief: (§1)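 Arrays were curated from the Consortium for Functional Glycomics database, 3228 in total, and kept only where the protein sequence was available. Binding is expressed as a within-array Z-score. This score was averaged across arrays of the same protein sequence at different concentrations or buffers and across linkers, and negative values can be read as non-binding.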
# [2] = target: Fuc(a1-2)Gal6S(b1-4)Glc6S
# Method in brief: as §1
# [3] = target: Fuc(a1-2)Gal6S(b1-4)GlcNAc
# Method in brief: as §1
# [4] = target: Fuc(a1-2)[Gal(a1-3)]Gal
# Method in brief: as §1
# [5] = target: Fuc(a1-2)[Gal(a1-3)]Gal(b1-3)GalNAc
# Method in brief: as §1
# [6] = target: Fuc(a1-2)[Gal(a1-3)]Gal(b1-3)GlcNAc
# Method in brief: as §1
# [7] = target: Fuc(a1-2)[Gal(a1-3)]Gal(b1-3)GlcNAc(b1-2)Man(a1-3)[Fuc(a1-2)[Gal(a1-3)]Gal(b1-3)GlcNAc(b1-2)Man(a1-6)]Man(b1-4)GlcNAc(b1-4)GlcNAc
# Method in brief: as §1
# [8] = target: Fuc(a1-2)[Gal(a1-3)]Gal(b1-3)GlcNAc(b1-2)Man(a1-3)[Fuc(a1-2)[Gal(a1-3)]Gal(b1-3)GlcNAc(b1-2)Man(a1-6)]Man(b1-4)GlcNAc(b1-4)[Fuc(a1-6)]GlcNAc
# Method in brief: as §1
# [9] = target: Fuc(a1-2)[Gal(a1-3)]Gal(b1-3)GlcNAc(b1-3)GalNAc
# Method in brief: as §1
# [10] = target: Fuc(a1-2)[Gal(a1-3)]Gal(b1-4)Glc
# Method in brief: as §1
# [11] = target: Fuc(a1-2)[Gal(a1-3)]Gal(b1-4)GlcNAc
# Method in brief: as §1
# [12] = target: Fuc(a1-2)[Gal(a1-3)]Gal(b1-4)GlcNAc(b1-2)Man(a1-3)[Fuc(a1-2)[Gal(a1-3)]Gal(b1-4)GlcNAc(b1-2)Man(a1-6)]Man(b1-4)GlcNAc(b1-4)GlcNAc
# Method in brief: as §1
# [13] = target: Fuc(a1-2)[Gal(a1-3)]Gal(b1-4)GlcNAc(b1-2)Man(a1-3)[Fuc(a1-2)[Gal(a1-3)]Gal(b1-4)GlcNAc(b1-2)Man(a1-6)]Man(b1-4)GlcNAc(b1-4)[Fuc(a1-6)]GlcNAc
# Method in brief: as §1
# [14] = target: Fuc(a1-2)[Gal(a1-3)]Gal(b1-4)GlcNAc(b1-3)GalNAc
# Method in brief: as §1
# [15] = target: Fuc(a1-2)[Gal(a1-3)]Gal(b1-4)GlcNAc(b1-6)GalNAc
# Method in brief: as §1
# [16] = target: Fuc(a1-2)[Gal(a1-3)]Gal(b1-4)[Fuc(a1-3)]Glc
# Method in brief: as §1
# [17] = target: Fuc(a1-2)[Gal(a1-3)]Gal(b1-4)[Fuc(a1-3)]GlcNAc
# Method in brief: as §1
# [18] = target: Fuc(a1-2)[Gal(a1-3)]Gal(b1-4)[Fuc(a1-3)]GlcNAc(b1-3)GalNAc
# Method in brief: as §1
# [19] = target: Fuc(a1-2)[Gal(a1-4)]Gal(b1-4)GlcNAc
# Method in brief: as §1
# [20] = target: Fuc(a1-2)[GalNAc(a1-3)]Gal
# Method in brief: as §1
# [21] = target: Fuc(a1-2)[GalNAc(a1-3)]Gal(b1-3)GalNAc(a1-3)[Fuc(a1-2)]Gal(b1-4)GlcNAc
# Method in brief: as §1
# [22] = target: Fuc(a1-2)[GalNAc(a1-3)]Gal(b1-3)GlcNAc
# Method in brief: as §1
# [23] = target: Fuc(a1-2)[GalNAc(a1-3)]Gal(b1-3)GlcNAc(b1-2)Man(a1-3)[Fuc(a1-2)[GalNAc(a1-3)]Gal(b1-3)GlcNAc(b1-2)Man(a1-6)]Man(b1-4)GlcNAc(b1-4)GlcNAc
# Method in brief: as §1
# [24] = target: Fuc(a1-2)[GalNAc(a1-3)]Gal(b1-3)GlcNAc(b1-2)Man(a1-3)[Fuc(a1-2)[GalNAc(a1-3)]Gal(b1-3)GlcNAc(b1-2)Man(a1-6)]Man(b1-4)GlcNAc(b1-4)[Fuc(a1-6)]GlcNAc
# Method in brief: as §1
# [25] = target: Fuc(a1-2)[GalNAc(a1-3)]Gal(b1-3)GlcNAc(b1-3)GalNAc
# Method in brief: as §1
# [26] = target: Fuc(a1-2)[GalNAc(a1-3)]Gal(b1-3)GlcNAc(b1-6)GalNAc
# Method in brief: as §1
# [27] = target: Fuc(a1-2)[GalNAc(a1-3)]Gal(b1-4)Glc
# Method in brief: as §1
# [28] = target: Fuc(a1-2)[GalNAc(a1-3)]Gal(b1-4)GlcNAc
# Method in brief: as §1
# [29] = target: Fuc(a1-2)[GalNAc(a1-3)]Gal(b1-4)GlcNAc(b1-2)Man(a1-3)[Fuc(a1-2)[GalNAc(a1-3)]Gal(b1-4)GlcNAc(b1-2)Man(a1-6)]Man(b1-4)GlcNAc(b1-4)GlcNAc
# Method in brief: as §1
# [30] = target: Fuc(a1-2)[GalNAc(a1-3)]Gal(b1-4)GlcNAc(b1-2)Man(a1-3)[Fuc(a1-2)[GalNAc(a1-3)]Gal(b1-4)GlcNAc(b1-2)Man(a1-6)]Man(b1-4)GlcNAc(b1-4)[Fuc(a1-6)]GlcNAc
# Method in brief: as §1
# [31] = target: Fuc(a1-2)[GalNAc(a1-3)]Gal(b1-4)GlcNAc(b1-3)Gal(b1-4)GlcNAc
# Method in brief: as §1
# [32] = target: Fuc(a1-2)[GalNAc(a1-3)]Gal(b1-4)GlcNAc(b1-3)Gal(b1-4)GlcNAc(b1-3)Gal(b1-4)GlcNAc
# Method in brief: as §1
# [33] = target: Fuc(a1-2)[GalNAc(a1-3)]Gal(b1-4)GlcNAc(b1-3)GalNAc
# Method in brief: as §1
# [34] = target: Fuc(a1-2)[GalNAc(a1-3)]Gal(b1-4)[Fuc(a1-3)]GlcNAc
# Method in brief: as §1
# [35] = target: Fuc(a1-2)[GalNAc(a1-3)]Gal(b1-4)[Fuc(a1-3)]GlcNAc(b1-3)GalNAc
# Method in brief: as §1
# [36] = target: Fuc(a1-2)[GalNAc(a1-4)]Gal(b1-4)GlcNAc
# Method in brief: as §1
# [37] = target: Fuc(a1-2)[GalNAc(b1-3)]Gal
# Method in brief: as §1
# [38] = target: Fuc(a1-3)GlcNAc
# Method in brief: as §1
# [39] = target: Fuc(a1-3)[Gal(b1-4)]Glc6S
# Method in brief: as §1
# [40] = target: Fuc(a1-3)[Gal(b1-4)]GlcNAc
# Method in brief: as §1
# [41] = target: Fuc(a1-3)[Gal(b1-4)]GlcNAc(b1-2)Man
# Method in brief: as §1
# [42] = target: Fuc(a1-3)[Gal(b1-4)]GlcNAc(b1-2)Man(a1-3)[Fuc(a1-3)[Gal(b1-4)]GlcNAc(b1-2)Man(a1-6)]Man(b1-4)GlcNAc(b1-4)GlcNAc
# Method in brief: as §1
# [43] = target: Fuc(a1-3)[Gal(b1-4)]GlcNAc(b1-2)Man(a1-3)[Fuc(a1-3)[Gal(b1-4)]GlcNAc(b1-2)Man(a1-6)]Man(b1-4)GlcNAc(b1-4)[Fuc(a1-6)]GlcNAc
# Method in brief: as §1
# [44] = target: Fuc(a1-3)[Gal(b1-4)]GlcNAc(b1-3)Gal(b1-3)[Fuc(a1-4)]GlcNAc
# Method in brief: as §1
# [45] = target: Fuc(a1-3)[Gal(b1-4)]GlcNAc(b1-3)GalNAc
# Method in brief: as §1
binder,measurement,setting,value
"Latrophilin-3 (Homo sapiens), Q9HAR2 (protein) MWPSQLLIFMMLLAPIIHAFSRAPIPMAVVRRELSCESYPIELRCPGTDVIMIESANYGRTDDKICDSDPAQMENIRCYLPDAYKIMSQRCNNRTQCAVVAGPDVFPDPCPGTYKYLEVQYECVPYKVEQKVFLCPGLLKGVYQSEHLFESDHQSGAWCKDPLQASDKIYYMPWTPYRTDTLTEYSSKDDFIAGRPTTTYKLPHRVDGTGFVVYDGALFFNKERTRNIVKFDLRTRIKSGEAIIANANYHDTSPYRWGGKSDIDLAVDENGLWVIYATEQNNGKIVISQLNPYTLRIEGTWDTAYDKRSASNAFMICGILYVVKSVYEDDDNEATGNKIDYIYNTDQSKDSLVDVPFPNSYQYIAAVDYNPRDNLLYVWNNYHVVKYSLDFGPLDSRSGQAHHGQVSYISPPIHLDSELERPSVKDISTTGPLGMGSTTTSTTLRTTTLSPGRSTTPSVSGRRNRSTSTPSPAVEVLDDMTTHLPSASSQIPALEESCEAVEAREIMWFKTRQGQIAKQPCPAGTIGVSTYLCLAPDGIWDPQGPDLSNCSSPWVNHITQKLKSGETAANIARELAEQTRNHLNAGDITYSVRAMDQLVGLLDVQLRNLTPGGKDSAARSLNKAMVETVNNLLQPQALNAWRDLTTSDQLRAATMLLHTVEESAFVLADNLLKTDIVRENTDNIKLEVARLSTEGNLEDLKFPENMGHGSTIQLSANTLKQNGRNGEIRVAFVLYNNLGPYLSTENASMKLGTEALSTNHSVIVNSPVITAAINKEFSNKVYLADPVVFTVKHIKQSEENFNPNCSFWSYSKRTMTGYWSTQGCRLLTTNKTHTTCSCNHLTNFAVLMAHVEVKHSDAVHDLLLDVITWVGILLSLVCLLICIFTFCFFRGLQSDRNTIHKNLCISLFVAELLFLIGINRTDQPIACAVFAALLHFFFLAAFTWMFLEGVQLYIMLVEVFESEHSRRKYFYLVGYGMPALIVAVSAAVDYRSYGTDKVCWLRLDTYFIWSFIGPATLIIMLNVIFLGIALYKMFHHTAILKPESGCLDNIKSWVIGAIALLCLLGLTWAFGLMYINESTVIMAYLFTIFNSLQGMFIFIFHCVLQKKVRKEYGKCLRTHCCSGKSTESSIGSGKTSGSRTPGRYSTGSQSRIRRMWNDTVRKQSESSFITGDINSSASLNREGLLNNARDTSVMDTLPLNGNHGNSYSIASGEYLSNCVQIIDRGYNHNETALEKKILKELTSNYIPSYLNNHERSSEQNRNLMNKLVNNLGSGREDDAIVLDDATSFNHEESLGLELIHEESDAPLLPPRVYSTENHQPHHYTRRRIPQDHSESFFPLLTNEHTEDLQSPHRDSLYTSMPTLAGVAATESVTTSTQTEPPPAKCGDAEDVYYKSMPNLGSRNHVHQLHTYYQLGRGSSDGFIVPPNKDGTPPEGSSKGPAHLVTSL",glycan array binding signal (z-score),[1],0.468
same,glycan array binding signal (z-score),[2],0.592
same,glycan array binding signal (z-score),[3],-0.836
same,glycan array binding signal (z-score),[4],-0.058
same,glycan array binding signal (z-score),[5],0.284
same,glycan array binding signal (z-score),[6],0.076
same,glycan array binding signal (z-score),[7],-1
same,glycan array binding signal (z-score),[8],-0.721
same,glycan array binding signal (z-score),[9],0.085
same,glycan array binding signal (z-score),[10],0.962
same,glycan array binding signal (z-score),[11],1.89
same,glycan array binding signal (z-score),[12],-0.684
same,glycan array binding signal (z-score),[13],-1.1
same,glycan array binding signal (z-score),[14],0.172
same,glycan array binding signal (z-score),[15],0.384
same,glycan array binding signal (z-score),[16],-0.915
same,glycan array binding signal (z-score),[17],0.315
same,glycan array binding signal (z-score),[18],-0.257
same,glycan array binding signal (z-score),[19],-0.055
same,glycan array binding signal (z-score),[20],-0.566
same,glycan array binding signal (z-score),[21],-1.2
same,glycan array binding signal (z-score),[22],-0.263
same,glycan array binding signal (z-score),[23],-0.097
same,glycan array binding signal (z-score),[24],1.47
same,glycan array binding signal (z-score),[25],0.027
same,glycan array binding signal (z-score),[26],0.106
same,glycan array binding signal (z-score),[27],-0.088
same,glycan array binding signal (z-score),[28],-0.285
same,glycan array binding signal (z-score),[29],-0.607
same,glycan array binding signal (z-score),[30],-0.618
same,glycan array binding signal (z-score),[31],0.586
same,glycan array binding signal (z-score),[32],0.608
same,glycan array binding signal (z-score),[33],-0.844
same,glycan array binding signal (z-score),[34],-0.398
same,glycan array binding signal (z-score),[35],4.19
same,glycan array binding signal (z-score),[36],-0.369
same,glycan array binding signal (z-score),[37],1.41
same,glycan array binding signal (z-score),[38],-0.243
same,glycan array binding signal (z-score),[39],-0.69
same,glycan array binding signal (z-score),[40],0.037
same,glycan array binding signal (z-score),[41],1.92
same,glycan array binding signal (z-score),[42],1.24
same,glycan array binding signal (z-score),[43],-0.135
same,glycan array binding signal (z-score),[44],0.571
same,glycan array binding signal (z-score),[45],-0.702

# Source: the supplement of paper PMC8728848
